From publication PMC3366998
No constants are given. Whether binding was seen depends on the method and setting. In cells and extracts the contact can be indirect. Some entries that bind do so weakly or less than the wild type.

Amino acid sequences for entries named in this document (tags omitted).
UniProt Q9Y466: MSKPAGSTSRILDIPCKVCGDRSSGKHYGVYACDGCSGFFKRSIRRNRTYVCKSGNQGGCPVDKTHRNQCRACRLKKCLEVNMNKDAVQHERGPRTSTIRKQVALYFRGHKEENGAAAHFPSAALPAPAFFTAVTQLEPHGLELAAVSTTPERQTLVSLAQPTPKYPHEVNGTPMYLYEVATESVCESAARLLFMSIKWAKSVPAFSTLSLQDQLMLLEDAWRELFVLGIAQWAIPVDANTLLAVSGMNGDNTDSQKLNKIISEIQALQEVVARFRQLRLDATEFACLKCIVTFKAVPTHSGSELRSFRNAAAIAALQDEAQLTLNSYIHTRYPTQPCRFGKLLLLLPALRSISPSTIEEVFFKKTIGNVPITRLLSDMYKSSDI

Target: TLX-FL-MycTAP (human) (UniProt Q9Y466)
Assay: co-IP; HEK293 cells transiently co-transfected; lysis in 50 mM HEPES pH 7.5, 150 mM NaCl, 1 mM MgCl2, 1 mM EGTA, 0.5% NP-40; TLX-FL-MycTAP precipitated (Protein G Sepharose beads, 4°C), FLAG-BCL11A-XL found by blot

## FLAG-BCL11A-XL (from UniProt Q9H165-1 1-835)
  binding: binds
